Article PMC4935975, “A neomorphic cancer cell-specific role of MAGE-A4 in trans-lesion synthesis” (Nature Communications, 2016)
Results are given in words; binding and its absence hold for the method and conditions named. In cells and extracts the contact can be indirect. Here binding means that the protein was enriched with, or labelled near, the bait; the list need not be complete.

Chains of the proteins cited; added tags and fusions are not shown. Lines headed by an entry give the natural chain unless they say otherwise; changes in a name come on top. A line that says so, or that is headed by a name, gives the form on record, which may keep a tag or linker.
UniProt Q9NS91: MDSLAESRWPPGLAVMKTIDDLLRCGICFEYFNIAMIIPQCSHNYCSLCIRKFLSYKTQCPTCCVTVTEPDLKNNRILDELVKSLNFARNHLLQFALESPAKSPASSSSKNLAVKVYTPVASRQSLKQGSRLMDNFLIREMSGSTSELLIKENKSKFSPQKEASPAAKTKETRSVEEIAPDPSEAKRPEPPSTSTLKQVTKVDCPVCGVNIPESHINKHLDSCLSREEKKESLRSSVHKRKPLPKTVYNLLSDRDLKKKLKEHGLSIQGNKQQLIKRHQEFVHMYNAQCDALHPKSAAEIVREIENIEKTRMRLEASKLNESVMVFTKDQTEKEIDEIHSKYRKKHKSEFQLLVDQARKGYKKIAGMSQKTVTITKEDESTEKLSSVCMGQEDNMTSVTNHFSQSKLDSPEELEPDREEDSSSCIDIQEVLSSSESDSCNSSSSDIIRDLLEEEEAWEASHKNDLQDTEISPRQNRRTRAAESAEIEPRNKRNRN
HA–RAD18 Δ402-444 (Q9NS91, form named): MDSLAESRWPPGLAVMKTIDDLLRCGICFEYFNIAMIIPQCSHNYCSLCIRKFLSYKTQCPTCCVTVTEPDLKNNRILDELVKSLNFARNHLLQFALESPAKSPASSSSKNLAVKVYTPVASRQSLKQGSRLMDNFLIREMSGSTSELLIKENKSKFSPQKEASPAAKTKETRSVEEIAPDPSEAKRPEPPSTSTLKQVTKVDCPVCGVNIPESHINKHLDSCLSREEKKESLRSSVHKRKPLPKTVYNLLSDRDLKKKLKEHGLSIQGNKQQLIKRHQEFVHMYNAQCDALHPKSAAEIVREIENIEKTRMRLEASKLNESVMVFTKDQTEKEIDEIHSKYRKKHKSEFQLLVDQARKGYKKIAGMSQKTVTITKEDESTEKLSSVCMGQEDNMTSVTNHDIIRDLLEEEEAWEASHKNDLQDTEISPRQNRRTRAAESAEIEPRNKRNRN
UniProt P43358: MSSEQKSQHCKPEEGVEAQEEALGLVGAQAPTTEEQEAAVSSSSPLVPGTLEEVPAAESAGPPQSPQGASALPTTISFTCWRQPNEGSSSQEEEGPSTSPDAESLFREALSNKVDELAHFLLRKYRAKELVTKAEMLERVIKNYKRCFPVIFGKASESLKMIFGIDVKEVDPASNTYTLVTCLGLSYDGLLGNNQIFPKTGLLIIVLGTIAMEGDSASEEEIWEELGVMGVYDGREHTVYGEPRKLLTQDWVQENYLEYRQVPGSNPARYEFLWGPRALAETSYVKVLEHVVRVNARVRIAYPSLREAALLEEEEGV
UniProt P12004: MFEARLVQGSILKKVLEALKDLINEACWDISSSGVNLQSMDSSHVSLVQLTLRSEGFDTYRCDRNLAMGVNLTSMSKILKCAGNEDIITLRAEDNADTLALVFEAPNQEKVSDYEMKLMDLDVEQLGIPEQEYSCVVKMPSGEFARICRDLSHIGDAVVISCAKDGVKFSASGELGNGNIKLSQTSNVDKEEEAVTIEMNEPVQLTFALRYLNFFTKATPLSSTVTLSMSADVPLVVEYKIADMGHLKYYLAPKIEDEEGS

Columns and labels:
HA–RAD18 wild type = HA–RAD18 wild type (UniProt Q9NS91); assay: affinity purification with mass spectrometry; label-free APMS; HA–RAD18 WT or Δ402-444 expressed in H1299 cells, undamaged or treated with ultraviolet or camptothecin; CSK lysate digested with DNase I and sonicated; anti-HA magnetic beads, 4 °C, 3 h; SAINT scoring
HA–RAD18 Δ402-444 = HA–RAD18 Δ402-444 (UniProt Q9NS91); assay: as above

Substance | binding (HA–RAD18 wild type) | binding (HA–RAD18 Δ402-444)
melanoma antigen-A4 (MAGE-A4) (from UniProt P43358 1-317) | binds | binds
proliferating cell nuclear antigen (PCNA) (from UniProt P12004 1-261) | binds | 
